At least one compound was matched to its structure with a doubt left.
Key:
[1] = Dissolution rate, USP <711> assay for immediate release, apparatus II (paddle), FasSGF; format: physicochemical; conditions: PVOH formulation with the excipient, 37°C, 50 rpm, n=3, grade symbols, key not given
[2] = Puncture force by texture analyzer with flat faced pin; format: physicochemical; conditions: carrier part from PVOH formulation with the excipient; grade symbols, key not given

Compound: [Cl-].[K+] [KCl]
- Dissolution rate [1]: −
- Puncture force [2]: +

Reference: patent publication US20220202728A1, “METHODS FOR PRODUCING A PHARMACEUTICAL CARRIER” (priority 2019, published 2022)
